These are yes or no findings as the source states them, for the method shown. Some results given as binding are weak or reduced against the parent protein; the word gives no strength. Sequences can lack the tags named with a protein.
Key:
MBP-Orf V106E = target: T1, MBP-Orf V106E (Bacteriophage lambda, UniProt P03765 1-146, V106E); assay: static light scattering; 0.2 mg/ml protein in 100 mM Tris-HCl pH 7 at 25°C, Zetasizer µV; mass estimated for a spherical particle; both purified
T1 sequence: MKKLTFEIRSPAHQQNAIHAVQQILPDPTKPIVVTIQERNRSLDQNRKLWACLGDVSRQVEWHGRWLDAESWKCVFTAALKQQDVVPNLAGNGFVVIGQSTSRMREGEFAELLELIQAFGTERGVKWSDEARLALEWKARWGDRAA

Amino acid sequences for entries named in this document (tags omitted). A change or cut given only in a name is not applied to a line headed by its entry.
UniProt P0AGE0: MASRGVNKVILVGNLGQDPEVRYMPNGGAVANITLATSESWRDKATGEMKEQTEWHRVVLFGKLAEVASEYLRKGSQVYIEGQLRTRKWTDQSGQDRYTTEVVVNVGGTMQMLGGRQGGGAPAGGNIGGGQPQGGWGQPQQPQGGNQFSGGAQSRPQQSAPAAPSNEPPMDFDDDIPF

[1] = target: SSBΔ115-144 (E. coli SSB deletion mutant) (E. coli) (UniProt P0AGE0); assay: ELISA; SSB wt or mutant (0.5 µg) bound to the microtitre plate in PBS, GST fusion added for 1 hr at 37°C, detected with HRP-anti-GST antibody, A620nm; both purified
[2] = compound: SSB fused to the GAL4 DNA-binding or activating domain (E. coli) (UniProt P0AGE0); assay: two-hybrid; yeast two-hybrid, constructs fused to the GAL4 DNA-binding or activating domains, β-galactosidase activity (Miller units)

B1: MBP-Orf V106E (natural protein, bacteriophage λ)
chain: MKKLTFEIRSPAHQQNAIHAVQQILPDPTKPIVVTIQERNRSLDQNRKLWACLGDVSRQVEWHGRWLDAESWKCVFTAALKQQDVVPNLAGNGFVVIGQSTSRMREGEFAELLELIQAFGTERGVKWSDEARLALEWKARWGDRAA
notes: Orf (NinB) of bacteriophage λ with V106E; Mutant derivative in pMALc2; Tends to form multimers or aggregates; source: E. coli BL21-AI carrying the pMALc2 construct, purified (amylose, heparin-agarose)
B1 was tested, and the binding (MBP-Orf V106E) was “binds”.

B2: GST-YbcN (N-terminal glutathione S-transferase fusion of DLP12 YbcN) (natural protein, E. coli (cryptic prophage DLP12), UniProt Q47269 1-151, looked up)
chain: MNLSQDGIKLHRGNFTAIGRQIQPYLEEGKCFRMVLKPWREKRSLSQNALSHMWYSEISEYLISRGKTFATPAWVKDALKHTYLGYETKDLVDVVTGDITTIQSLRHTSDLDTGEMYVFLCKVEAWAMNIGCHLTIPQSCEFQLLRDKQEA
notes: YbcN (orf151), Orf-family protein of E. coli cryptic prophage DLP12; insert of pLB101 moved into pGEX-6P-1; predicted monomer of the GST fusion 44.6 kDa; higher oligomers are put down to dimer-dimer combinations; also called DLP12 GST-YbcN; source: E. coli BL21 Codon Plus carrying pLB108, purified (glutathione sepharose, heparin agarose, Q sepharose); not shown: GST, N-terminal, kept
In the case of B2, the binding [1] is reported as “binds”.

B3: YbcN fused to the GAL4 DNA-binding or activating domain (protein, UniProt Q47269 1-151)
chain: MNLSQDGIKLHRGNFTAIGRQIQPYLEEGKCFRMVLKPWREKRSLSQNALSHMWYSEISEYLISRGKTFATPAWVKDALKHTYLGYETKDLVDVVTGDITTIQSLRHTSDLDTGEMYVFLCKVEAWAMNIGCHLTIPQSCEFQLLRDKQEA
In the case of B3, the binding [2] is reported as “binds”.

Source: paper PMC4118853, “Phage Orf Family Recombinases: Conservation of Activities and Involvement of the Central Channel in DNA Binding” (PLoS ONE, 2014)
